# Data from the supplement of paper PMC7858590.
# Where “and” joins values, the source holds several entries; their conditions need not be identical. Equal values may be shown once. ± gives the standard deviation of the averaged measurements. In all, about 3,800 compounds were measured (“cell shape (eccentricity) Z-score vs DMSO control”: median about 1.1, lowest 2% from about -4.7 on). The list shows a part of the results.
# Tested on: human monocyte-derived macrophages (M0)
# Test: cell shape (eccentricity) Z-score vs DMSO control; higher = more elongated, M2-like morphology
# Conditions: 20 µM; 24 h; macrophage state: M0 (M-CSF)
# Procedure: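 Primary human monocyte-derived macrophages (M-CSF differentiated, pooled from 4 donors, 5000 cells/well in 384-well plates) were treated with each compound at 20 uM for 24 h, then fixed and stained with phalloidin/DAPI and imaged on an Opera Phenix (6 fields, about 1000 cells/well). Cell eccentricity was measured with CellProfiler, and a Z-score (t-test) was computed against 4 DMSO control wells in the same row. Negative values mean round (M1-like) cells and positive values mean elongated (M2-like) cells; the paper's hit cutoffs are Z <= -4 (M1) and Z >= 6 (M2). Scale: negative = round, M1-like.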
row,SMILES,cell shape (Z-score)
1,C[C@]12CC[C@@H](O)C[C@@H]1CC[C@@H]1[C@@H]2CC[C@]2(C)C(=O)[C@@H](Br)C[C@@H]12,-2.79
2,CCC1(CC)C(=O)NC(=O)NC1=O,8.63
3,CN1C2C[C@H](OC(=O)[C@H](CO)c3ccccc3)C[C@H]1[C@@H](O)C2,0.918
4,CC(C)=CC1C(C(=O)OCc2coc(Cc3ccccc3)c2)C1(C)C (configuration not stated),5.88
5,Cc1nnc2ccc(-c3cccc(C(F)(F)F)c3)nn12,-1.12
6,COc1ccc2c(c1OC)CN1CCc3cc4c(cc3C1C2)OCO4 (configuration not stated),3.2
7,C=CC(C)(C)[C@]12C=C(OC)C(=O)N3/C(=C/c4cnc[nH]4)C(=O)N[C@@]31N(OC)c1ccccc12,1.14
8,CN(C)[C@@H]1C(=O)C(C(N)=O)C(=O)[C@@]2(O)C(=O)C3C(=O)c4c(O)cccc4[C@@](C)(O)C3[C@H](O)C12 (some centres not stated),-0.752
9,CC(N)Cn1ccc2cc(F)c(Cl)cc21 (configuration not stated),0.211
10,COc1ccc(CCN2CCC(Nc3nc4ccccc4n3Cc3ccc(F)cc3)CC2)cc1,0.69
11,CCCN1C[C@H](CSC)C[C@@H]2c3cccc4[nH]cc(c34)C[C@H]21,-0.369
12,C[N+]1(C)CCc2cc3c(cc2C1[C@@H]1OC(=O)c2c1ccc1c2OCO1)OCO3 (some centres not stated),2.95
13,O=C1Nc2cc(Cl)c(Cl)cc2N2CCNCC12 (configuration not stated),2.26
14,C[C@H]1O[C@@H](O[C@H]2CC[C@]3(CO)C4CC[C@]5(C)[C@@H](C6=CC(=O)OC6)CC[C@]5(O)[C@@H]4CC[C@H]3C2)[C@H](O)[C@H](O)[C@@H]1O[C@@H]1O[C@H](CO)[C@@H](O)[C@H](O)[C@H]1O (some centres not stated),-6
15,Ic1cncc(OC[C@@H]2CCN2)c1,-2.82
16,Clc1ccc(N2CCN(Cc3c[nH]c4ncccc34)CC2)cc1,-2.74
17,CCC(=O)CCCCC[C@@H]1NC(=O)[C@H]2CCCCN2C(=O)[C@H]([C@H](C)CC)NC(=O)[C@H](Cc2cn(OC)c3ccccc23)NC1=O,13.4
18,Cc1ccc2c(c1)Cc1c(C(=O)NN3CCCCC3)nn(-c3ccc(Cl)cc3Cl)c1-2,2.07
19,CN1C2CCC1CC(OC(c1ccc(F)cc1)c1ccc(F)cc1)C2 (configuration not stated),2.94
20,C=CC(C)(C)[C@@]12C[C@H]3C(=O)N/C(=C\c4cnc[nH]4)C(=O)N3[C@@H]1Nc1ccccc12,-3.18
21,C[C@]12[C@H](O)CC3C(CC[C@@H]4C[C@@H](O)CC[C@]34C)[C@@]1(O)CC[C@@H]2C1=CC(=O)OC1 (some centres not stated),-0.702
22,CCC1(CC)C(=O)C=CNC1=O,3.86
23,COc1cc(N)c(Cl)cc1C(=O)NC1CN2CCC1CC2 (configuration not stated),1.5 and 3.06
24,COc1ccc2c(c1O)-c1c(OC)c(OC)cc3c1[C@H](C2)N(C)CC3,1.61
25,Oc1ccc2c3c1OC1c4oc5ccccc5c4CC4(O)C(C2)N(CC2CC2)CCC314 (configuration not stated),2.92

# As entered above:
# Entry for CCCN1C[C@H](CSC)C[C@@H]2c3cccc4[nH]cc(c34)C[C@H]21 under cell shape (Z-score): -0.369
# Entry for CN1C2C[C@H](OC(=O)[C@H](CO)c3ccccc3)C[C@H]1[C@@H](O)C2 under cell shape (Z-score): 0.918
# Entry for COc1ccc2c(c1O)-c1c(OC)c(OC)cc3c1[C@H](C2)N(C)CC3 under cell shape (Z-score): 1.61
# Entry for CCC1(CC)C(=O)C=CNC1=O under cell shape (Z-score): 3.86
# Entry for COc1cc(N)c(Cl)cc1C(=O)NC1CN2CCC1CC2 (configuration not stated) under cell shape (Z-score): 1.5 and 3.06

# Next results follow.

row,SMILES,cell shape (Z-score)
1,CCC1C(C)=NN=C(c2ccc(OC)c(OC)c2)c2cc(OC)c(OC)cc21 (configuration not stated),2.3
2,CCN1C[C@]2(C)CC[C@H](O)[C@@]34C2[C@H](OC)C([C@@H]13)[C@@]1(O)C[C@H](OC)[C@H]2C[C@@H]4[C@@H]1[C@H]2O,-1.42 ± 3.7
3,COc1ccc(C(=O)O)cc1OC,1.09
4,NC(=O)OCCCc1ccccc1,-0.0339
5,COc1cc2c(c(OC)c1OC)-c1ccc(OC)c(=O)cc1[C@@H](NC(C)=O)CC2,8.06
6,CN1CC(C(=O)NC2(C)OC3(O)C4CCCN4C(=O)C(Cc4ccccc4)N3C2=O)CC2c3cccc4[nH]cc(c34)CC21 (configuration not stated),2.08
7,COC(=O)NC(=S)Nc1ccccc1NC(=S)NC(=O)OC,-0.862
8,CCOC(=O)c1c(C(C#N)=CN)c2ccc(Cl)c(Cl)c2n1C,-1.1
9,CO[C@H]1[C@H](O)[C@@H](O[C@H]2CC[C@]3(C=O)C4CC[C@]5(C)[C@@H](C6=CC(=O)OC6)CC[C@]5(O)C4CC[C@@H]3C2)O[C@@H](C)[C@@H]1O (some centres not stated),-0.177
10,CC1(C)C(=O)[C@@H]2O[C@@H]2[C@@]2(C)C1C[C@@H](O)[C@]1(C)C2CC[C@@]2(C)[C@H](c3ccoc3)OC(=O)C3OC321 (some centres not stated),-2.76
11,CN1CCCCC1c1ccc(-c2cccnc2)nc1 (configuration not stated),1.81
12,CS(=O)(=O)Nc1ccc(Cc2noc(-c3ccc4[nH]cc(CCN)c4c3)n2)cc1,1.96
13,CCC1CN2CCC3(C(=O)Nc4cccc(O)c43)C2CC1/C(=C/OC)C(=O)OC (configuration not stated),-0.148
14,C=C[C@H]1C[N@@]2CC[C@H]1C[C@@H]2[C@@H](OC(=O)OCC)c1ccnc2ccc(OC)cc12,2.6
15,C[C@]12CCC(=O)C=C1CCC1C2CC[C@@]2(C)C1CC[C@H]2O (some centres not stated),2.55
16,C/C=C\C(C)=C\[C@H](C)C(=O)C[C@H](O)CC1CC(=O)NC(=O)C1,-0.473
17,CC(C)[C@]12O[C@H]1[C@@H]1O[C@]13[C@]1(O[C@H]1CC1C4=C(CC[C@@]13C)C(=O)OC4)[C@@H]2O (some centres not stated),8.48
18,COc1ccc(CNC(=O)C=Cc2ccc3[nH]cc(CCN(C)C)c3c2)cc1,0.181
19,COc1ccccc1N1CCNCC1,1.68
20,COc1ccc(-n2nc(C(F)(F)F)cc2-c2ccc(Cl)cc2)cc1,1.25
21,CCN1C[C@]2(COC)CCC(OC)[C@@]34C5C[C@@]6(O)[C@H](OC(=O)c7ccc(OC)cc7)C5[C@@](OC(C)=O)(C[C@H]6OC)[C@@H]([C@H](OC)C23)[C@@H]14 (some centres not stated),6.7
22,C=CCN1C[C@H](C)N([C@@H](c2ccccc2)c2ccc(C(=O)N(CC)CC)cc2)C[C@H]1C,-3.15
23,FC(F)(F)c1cccc(C2=CCN(CCc3ccc4ccccc4c3)CC2)c1,3.06
24,CC(C)[C@@]1(NC(=O)[C@@H]2CC3c4cccc5[nH]cc(c45)C[C@H]3N(C)C2)O[C@@]2(O)[C@@H]3CCCN3C(=O)[C@H](Cc3ccccc3)N2C1=O (some centres not stated),2.78
25,COc1ccc2c(c1)[C@]13CCCC[C@H]1[C@H](C2)N(C)CC3,2.66

row,SMILES,cell shape (Z-score)
1,CCCCCCCCCCCCCCCC[n+]1ccccc1,0.864
2,COc1cc2c(cc1O)C1Cc3ccc(OC)c(O)c3CN1CC2 (configuration not stated),1.71
3,CCOP(=S)(OCC)Oc1nc(Cl)c(Cl)cc1Cl,1.76
4,CCCC1CC2=CC(=O)CCC2(C)C2CCC3(C)C(CCC3(O)CCC(=O)O)C12 (configuration not stated),2.52
5,COc1cc2c(cc1O)CC1c3c(cc(O)c(OC)c3-2)CCN1C (configuration not stated),-0.0666
6,CC(C)CCCC1(C)C=Cc2c(O)c3c(c(CCC(C)C)c2O1)OC12C(CC4CC1C(C)(C)OC2(CCC(C)C(=O)O)C4O)C3=O (configuration not stated),2.8
7,COC(/C=C/CC/C=C/C(=O)O)C(O)C(C)C(O)/C(C)=C/C(C)C(=O)CCCC1CC(=O)NC(=O)C1 (configuration not stated),0.215 ± 1.7
8,CCCN[C@@H]1CCc2c(OC)cccc2[C@@H]1C,0.584
9,CC(C)(C)CC(C)(C)c1ccc(O)cc1,-0.489
10,Cc1c([N+](=O)[O-])oc2ccc3ccccc3c12,-0.364
11,CC[C@@]1(O)C[C@H](O)c2c(cc3c(c2O)C(=O)c2c(O)ccc(O)c2C3=O)[C@H]1C(=O)OC,0.319
12,NC(=O)CS(=O)C(c1ccccc1)c1ccccc1 (configuration not stated),1.55
13,N#CC(C#N)Cc1ccc(O)cc1,1.59
14,CC12C(=O)OC(=O)C1(C)C1CCC2O1 (configuration not stated),-12.8
15,CCC(CO)NC(=O)C1C=C2c3cccc4[nH]cc(c34)CC2N(C)C1 (configuration not stated),3.27
16,CC(C)c1c(CN(C)C(C)Cc2ccccc2)n(C)n(-c2ccccc2)c1=O (configuration not stated),2.2
17,CC(=O)NC1CCSC1=O (configuration not stated),-0.846
18,CC[C@@H](CO)NC(=O)[C@@H]1C=C2c3cccc4[nH]cc(c34)C[C@H]2N(C)C1,1.3
19,CNC(C)(C)Cc1ccccc1,1.46
20,CN1C(=O)CCS(=O)(=O)C1c1ccc(Cl)cc1 (configuration not stated),1.93
21,CCn1cc(C(=O)O)c(=O)c2cc3c(cc21)OCO3,14.7
22,Cc1c(C(=O)c2cccc3ccccc23)c2cccc3c2n1[C@H](CN1CCOCC1)CO3,-5.15
23,C[C@@H]1CC[C@H]2[C@@H](C)C(=O)O[C@@H]3O[C@@]4(C)CC[C@@H]1[C@]32OO4,3.6
24,CN1C(=O)c2ccccc2NC(=O)C1Cc1ccccc1 (configuration not stated),2.63
25,O=c1c2ccccc2[se]n1-c1ccccc1,4.17

# Among those listed so far, 2 contain a cyano group:
row,SMILES,cell shape (Z-score)
8,CCOC(=O)c1c(C(C#N)=CN)c2ccc(Cl)c(Cl)c2n1C,-1.1
13,N#CC(C#N)Cc1ccc(O)cc1,1.59

# Later entries

row,SMILES,cell shape (Z-score)
1,Cc1ncc(CN2CC=C(c3ccccc3)CC2)c(N)n1,1.64
2,CC(C)C1(NC(=O)C2CC3c4cccc5[nH]cc(c45)CC3N(C)C2)OC2(O)C3CCCN3C(=O)C(Cc3ccccc3)N2C1=O (configuration not stated),3.08
3,CCC(CO)NC(=O)C1C=C2c3cccc4c3c(cn4C)CC2N(C)C1 (configuration not stated),1.21
4,Clc1cccc(SC2CCNCC2)n1,-1.72
5,N#Cc1c(Oc2cccc(OS(=O)(=O)CCCC(F)(F)F)c2)cccc1C(F)(F)F,1.75
6,CC[C@H]1CN2CCC1C[C@@H]2[C@H](O)c1ccnc2ccc(OC)cc12 (some centres not stated),-0.0446
7,NP(N)(=O)NC(=O)c1ccc(F)cc1,1.35
8,CC(C)(N)Cc1ccccc1,1.48
9,CCOC(=O)c1ncc2[nH]c3ccc(OCc4ccccc4)cc3c2c1COC,-0.571
10,C[C@]12CCC3C(CC[C@H]4CC(=O)CC[C@]34C)C1CCC2=O (some centres not stated),-2.01
11,CCCN1CCCC2Cc3n[nH]cc3CC21 (configuration not stated),3.76
12,CCNCC(O)c1cccc(O)c1 (configuration not stated),-0.645
13,CC(=O)O[C@@H]1C[C@@]2(C)[C@H](c3ccoc3)C[C@H]3O[C@]32[C@]2(C)C(=O)C(=O)C3C(C)(C)C(=O)C=C[C@]3(C)C12 (some centres not stated),-3.62
14,CC(C)NCC(O)c1ccccc1Cl (configuration not stated),0.72
15,CC(=O)NCCc1c[nH]c2ccccc12,0.144
16,C=C[C@H]1C[N@@]2CC[C@H]1C[C@@H]2[C@H](O)c1ccnc2ccccc12,0.0426
17,C[C@@H]1CC[C@H]2[C@@H](C)C(=O)O[C@@H]3O[C@]4(C)CC[C@@H]1[C@]32OO4,0.573
18,O=c1ccc2[nH]cc(C3=CCNCC3)c2[nH]1,1.74
19,N#CC(C#N)=Cc1ccc([N+](=O)[O-])c(O)c1,1.9
20,Cc1c(C(=O)c2cccc3ccccc23)c2cccc3c2n1[C@@H](CN1CCOCC1)CO3,3.85
21,O=C1CSC(c2ccccc2Cl)c2cc(Cl)ccc2N1 (configuration not stated),1.77
22,Cc1c2ccncc2c(C)c2c1[nH]c1ccccc12,3.64
